Data: patent US20250127896A1, “CHIMERIC TIM4 RECEPTORS AND USES THEREOF” (CERO THERAPEUTICS HOLDINGS, INC., priority 2021, published 2025)
At least one structure is not confirmed: it was looked up by name or label, or the drawing left a doubt.

Assays:
[1] = tested on: JeKo-1 mantle cell lymphoma cells; assay: Ibrutinib-induced phosphatidylserine exposure on JeKo-1 cells (recombinant murine Tim-4 staining); format: cell-based
[2] = tested on: REC-1 mantle cell lymphoma cells; assay: Ibrutinib-induced phosphatidylserine exposure on REC-1 cells (flow cytometry, recombinant murine Tim-4); format: cell-based; conditions: 0.05 to 50 M for 24 to 48 hours, more sensitive than JeKo-1

C=CC(=O)N1CCC[C@@H](n2nc(-c3ccc(Oc4ccccc4)cc3)c3c(N)ncnc32)C1 [Ibrutinib]
Ptd-Ser exposure ([1]; JeKo-1 MCL, immunohistochemistry with recombinant murine Tim4): exposes Ptd-Ser
PS exposure measured by flow cytometry ([1]; JeKo-1 cells, 0.05 to 50 M for 24 to 48 hours, less sensitive than REC-1): induced PS exposure
PS exposure measured by flow cytometry [2]: induced PS exposure
